# Some of the results follow. Repeats are few or missing, and single values can be far off.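 Cells were imaged in 1,536-well plates, and nuclei stained with an antibody against cleaved PARP were counted against all DNA-stained nuclei to give the apoptosis fraction. Screening doses were chosen to leave most cells alive, and resting and induced cleaved-PARP levels differ strongly between cell lines.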
# Key:
# Test in all cases: cleaved PARP positive nuclei fraction relative to DMSO control; melanoma cells; higher = more apoptosis
# Details in all cases: library dose: low library concentration; 72 h
# [1] = tested on: 501Mel
# [2] = tested on: A101D
# [3] = tested on: A2058
# [4] = tested on: A375
# [5] = tested on: C32
# [6] = tested on: CBRC008 (line from a melanoma biopsy)
# [7] = tested on: CBRC014 (line from a melanoma biopsy)
# [8] = tested on: CBRC016 (line from a melanoma biopsy)
# [9] = tested on: CBRC017 (line from a melanoma biopsy)
# [10] = tested on: CBRC034 (line from a melanoma biopsy)
# [11] = tested on: COLO792
# [12] = tested on: COLO800
# [13] = tested on: COLO829
# [14] = tested on: G361
# [15] = tested on: IPC-298
# [16] = tested on: IST-MEL1
# [17] = tested on: LB2518-MEL
# [18] = tested on: LOXIMVI
# [19] = tested on: MEL-HO
SMILES,cleaved PARP positive nuclei fraction [1] [%],cleaved PARP positive nuclei fraction [2] [%],cleaved PARP positive nuclei fraction [3] [%],cleaved PARP positive nuclei fraction [4] [%],cleaved PARP positive nuclei fraction [5] [%],cleaved PARP positive nuclei fraction [6] [%],cleaved PARP positive nuclei fraction [7] [%],cleaved PARP positive nuclei fraction [8] [%],cleaved PARP positive nuclei fraction [9] [%],cleaved PARP positive nuclei fraction [10] [%],cleaved PARP positive nuclei fraction [11] [%],cleaved PARP positive nuclei fraction [12] [%],cleaved PARP positive nuclei fraction [13] [%],cleaved PARP positive nuclei fraction [14] [%],cleaved PARP positive nuclei fraction [15] [%],cleaved PARP positive nuclei fraction [16] [%],cleaved PARP positive nuclei fraction [17] [%],cleaved PARP positive nuclei fraction [18] [%],cleaved PARP positive nuclei fraction [19] [%]
"CC[C@]1(O)C[C@H]2CN(CCc3c([nH]c4ccccc34)[C@@](C(=O)OC)(c3cc4c(cc3OC)N(C=O)[C@H]3[C@@](O)(C(=O)OC)[C@H](OC(C)=O)[C@]5(CC)C=CCN6CC[C@]43[C@@H]65)C2)C1 [vincristine] + Nc1ncn([C@H]2C[C@H](O)[C@@H](CO)O2)c(=O)n1 [decitabine] (first compound 0.0001 µM, partner dose 0.1 µM)",87.9,214,229,181,256,123,118,173,109,91.2,88.1,94.6,64.5,147,63.2,35.6,63.9,90.1,146
"CCCCCCCCCCCCCCCCCCOP(=O)([O-])OC1CC[N+](C)(C)CC1 [Perifosine] + CN(c1ncccc1CNc1nc(Nc2ccc3c(c2)CC(=O)N3)ncc1C(F)(F)F)S(C)(=O)=O [PF562271] (first compound 0.4 µM, partner dose 0.08 µM)",63.6,84,143,418,83.4,113,96.4,99.5,137,229,113,56.3,119,119,42,53.7,103,47.7,38.2
"Cc1ccc(Nc2nccc(N(C)c3ccc4c(C)n(C)nc4c3)n2)cc1S(N)(=O)=O [Pazopanib] + Cc1nc(Nc2ncc(C(=O)Nc3c(C)cccc3Cl)s2)cc(N2CCN(CCO)CC2)n1 [dasatanib] (first compound 0.4 µM, partner dose 0.004 µM)",89.1,94.6,151,120,75,96,139,44.7,94.1,85.7,196,91.8,153,113,104,134,122,113,58.4
"CC[C@]1(O)C[C@H]2CN(CCc3c([nH]c4ccccc34)[C@@](C(=O)OC)(c3cc4c(cc3OC)N(C=O)[C@H]3[C@@](O)(C(=O)OC)[C@H](OC(C)=O)[C@]5(CC)C=CCN6CC[C@]43[C@@H]65)C2)C1 [vincristine] + CCN(CC)CCNC(=O)c1c(C)[nH]c(/C=C2\C(=O)Nc3ccc(F)cc32)c1C [sunitinib] (first compound 0.0001 µM, partner dose 0.4 µM)",92.2,84,238,78.7,85.2,32.5,98.2,50.5,121,123,57.7,110,141,131,88.6,115,181,118,249
"O=c1[nH]nc(Sc2ncc([N+](=O)[O-])s2)n1-c1ccc2c(c1)OCCO2 + C[C@@H](Oc1cc(-c2cnn(C3CCNCC3)c2)cnc1N)c1c(Cl)ccc(F)c1Cl [Crizotinib] (first compound 0.2 µM, partner dose 0.2 µM)",103,139,85.9,87.6,244,100,81.4,143,101,142,53.4,83.4,102,139,87.7,33,101,96.5,200
"CCCCCCCCCCCCCCCCCCOP(=O)([O-])OC1CC[N+](C)(C)CC1 [Perifosine] + CC(C)C[C@H](NC(=O)[C@H](Cc1ccccc1)NC(=O)c1cnccn1)B(O)O [Bortezomib] (first compound 0.4 µM, partner dose 0.001 µM)",722,224,335,2010,97.7,233,211,115,155,70.6,171,21.8,11.9,457,66.1,386,130,34.5,115
"O=c1[nH]nc(Sc2ncc([N+](=O)[O-])s2)n1-c1ccc2c(c1)OCCO2 + O=C(O)c1ccc2c(c1)nc(Nc1cccc(Cl)c1)c1ccncc12 [CX4945] (first compound 0.2 µM, partner dose 0.4 µM)",41.2,77.6,72.8,102,69.1,70.5,121,139,137,218,45.9,60.9,118,145,176,55.9,98.7,185,40.4
"O=C(/C=C/c1cccnc1)NCCCCC1CCN(C(=O)c2ccccc2)CC1 + CC1(C)CCC(c2ccc(Cl)cc2)=C(CN2CCN(c3ccc(C(=O)NS(=O)(=O)c4ccc(N[C@H](CCN5CCOCC5)CSc5ccccc5)c(S(=O)(=O)C(F)(F)F)c4)cc3)CC2)C1 [ABT263] (first compound 0.01 µM, partner dose 0.4 µM)",62.5,171,127,1120,303,2110,6530,1570,1950,1690,2140,161,405,8210,11400,3040,668,864,1430
"CC[C@]1(O)C[C@H]2CN(CCc3c([nH]c4ccccc34)[C@@](C(=O)OC)(c3cc4c(cc3OC)N(C=O)[C@H]3[C@@](O)(C(=O)OC)[C@H](OC(C)=O)[C@]5(CC)C=CCN6CC[C@]43[C@@H]65)C2)C1 [vincristine] + Cc1nc(Nc2ncc(C(=O)Nc3c(C)cccc3Cl)s2)cc(N2CCN(CCO)CC2)n1 [dasatanib] (first compound 0.0001 µM, partner dose 0.004 µM)",116,287,1510,247,199,369,134,45.5,149,95.4,82.7,158,117,147,42.8,77.5,122,180,174
"O=C(/C=C/c1cccnc1)NCCCCC1CCN(C(=O)c2ccccc2)CC1 + Nc1ncn([C@H]2C[C@H](O)[C@@H](CO)O2)c(=O)n1 [decitabine] (first compound 0.01 µM, partner dose 0.1 µM)",51.5,142,55.2,95.8,71.8,4090,154,2200,651,841,938,88.3,353,4250,291,70.1,445,133,439
"N#CC[C@H](C1CCCC1)n1cc(-c2ncnc3[nH]ccc23)cn1 [ruxolitinib] + C[C@@H](N)c1ccc(C(=O)Nc2ccnc3[nH]ccc23)cc1 [RKI983] (first compound 1 µM, partner dose 0.4 µM)",39.6,162,61.8,115,75.9,46.9,110,238,95.4,100,78.3,180,77.3,120,27.4,260,68.2,102,87.2
"O=C(Nc1cc(C(F)(F)F)cc(C(F)(F)F)c1)c1cc(Cl)ccc1O + Cn1sc(=O)n(Cc2ccccc2)c1=O [TDZD-8] (first compound 0.016 µM, partner dose 0.4 µM)",90.6,91,254,139,286,61.7,122,47.7,109,66.1,116,120,52.6,88.1,89.6,32.7,105,66.7,71

# Complete entries from above. Values in the order: cleaved PARP positive nuclei fraction [1] [%] | cleaved PARP positive nuclei fraction [2] [%] | cleaved PARP positive nuclei fraction [3] [%] | cleaved PARP positive nuclei fraction [4] [%] | cleaved PARP positive nuclei fraction [5] [%] | cleaved PARP positive nuclei fraction [6] [%] | cleaved PARP positive nuclei fraction [7] [%] | cleaved PARP positive nuclei fraction [8] [%] | cleaved PARP positive nuclei fraction [9] [%] | cleaved PARP positive nuclei fraction [10] [%] | cleaved PARP positive nuclei fraction [11] [%] | cleaved PARP positive nuclei fraction [12] [%] | cleaved PARP positive nuclei fraction [13] [%] | cleaved PARP positive nuclei fraction [14] [%] | cleaved PARP positive nuclei fraction [15] [%] | cleaved PARP positive nuclei fraction [16] [%] | cleaved PARP positive nuclei fraction [17] [%] | cleaved PARP positive nuclei fraction [18] [%] | cleaved PARP positive nuclei fraction [19] [%]
# Cc1ccc(Nc2nccc(N(C)c3ccc4c(C)n(C)nc4c3)n2)cc1S(N)(=O)=O [Pazopanib] + Cc1nc(Nc2ncc(C(=O)Nc3c(C)cccc3Cl)s2)cc(N2CCN(CCO)CC2)n1 [dasatanib] (first compound 0.4 µM, partner dose 0.004 µM) in the list: 89.1 | 94.6 | 151 | 120 | 75 | 96 | 139 | 44.7 | 94.1 | 85.7 | 196 | 91.8 | 153 | 113 | 104 | 134 | 122 | 113 | 58.4
# CC[C@]1(O)C[C@H]2CN(CCc3c([nH]c4ccccc34)[C@@](C(=O)OC)(c3cc4c(cc3OC)N(C=O)[C@H]3[C@@](O)(C(=O)OC)[C@H](OC(C)=O)[C@]5(CC)C=CCN6CC[C@]43[C@@H]65)C2)C1 [vincristine] + CCN(CC)CCNC(=O)c1c(C)[nH]c(/C=C2\C(=O)Nc3ccc(F)cc32)c1C [sunitinib] (first compound 0.0001 µM, partner dose 0.4 µM) in the list: 92.2 | 84 | 238 | 78.7 | 85.2 | 32.5 | 98.2 | 50.5 | 121 | 123 | 57.7 | 110 | 141 | 131 | 88.6 | 115 | 181 | 118 | 249

# Source: the supplement of paper PMC4604168 (melanoma cell lines)
